Laboratory results as given in publication PMC7838283.
Results are given in words; binding and its absence hold for the method and conditions named. In cells and extracts the contact can be indirect. Some results given as binding are weak or reduced against the parent protein; the word gives no strength.

Chains of the proteins cited; added tags and fusions are not shown. Lines headed by an entry give the natural chain unless they say otherwise; changes in a name come on top.
UniProt P10275: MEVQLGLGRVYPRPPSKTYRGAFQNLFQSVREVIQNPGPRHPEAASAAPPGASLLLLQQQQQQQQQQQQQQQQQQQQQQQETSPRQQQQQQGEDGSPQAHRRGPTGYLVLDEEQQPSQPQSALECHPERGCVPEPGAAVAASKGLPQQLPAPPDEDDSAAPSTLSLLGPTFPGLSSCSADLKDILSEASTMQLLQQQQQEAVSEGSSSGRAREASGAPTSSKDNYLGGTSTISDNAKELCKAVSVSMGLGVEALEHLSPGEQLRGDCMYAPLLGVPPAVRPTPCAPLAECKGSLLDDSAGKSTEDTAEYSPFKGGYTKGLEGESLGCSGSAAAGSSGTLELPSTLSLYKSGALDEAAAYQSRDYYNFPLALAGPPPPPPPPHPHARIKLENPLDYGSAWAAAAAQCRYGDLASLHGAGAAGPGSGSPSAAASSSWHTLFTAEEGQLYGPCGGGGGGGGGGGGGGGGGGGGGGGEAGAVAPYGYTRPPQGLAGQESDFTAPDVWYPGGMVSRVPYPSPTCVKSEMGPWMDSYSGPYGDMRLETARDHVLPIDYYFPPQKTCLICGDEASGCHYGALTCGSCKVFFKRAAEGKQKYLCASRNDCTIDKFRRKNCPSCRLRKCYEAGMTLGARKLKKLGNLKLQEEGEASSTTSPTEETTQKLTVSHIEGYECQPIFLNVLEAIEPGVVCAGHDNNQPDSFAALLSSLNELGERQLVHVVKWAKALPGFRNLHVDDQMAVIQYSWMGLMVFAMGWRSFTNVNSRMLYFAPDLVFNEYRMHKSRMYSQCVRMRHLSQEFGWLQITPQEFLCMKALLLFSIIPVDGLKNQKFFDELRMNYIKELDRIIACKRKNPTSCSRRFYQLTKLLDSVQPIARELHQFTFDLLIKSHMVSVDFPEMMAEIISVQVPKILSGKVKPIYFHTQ
UniProt P05556: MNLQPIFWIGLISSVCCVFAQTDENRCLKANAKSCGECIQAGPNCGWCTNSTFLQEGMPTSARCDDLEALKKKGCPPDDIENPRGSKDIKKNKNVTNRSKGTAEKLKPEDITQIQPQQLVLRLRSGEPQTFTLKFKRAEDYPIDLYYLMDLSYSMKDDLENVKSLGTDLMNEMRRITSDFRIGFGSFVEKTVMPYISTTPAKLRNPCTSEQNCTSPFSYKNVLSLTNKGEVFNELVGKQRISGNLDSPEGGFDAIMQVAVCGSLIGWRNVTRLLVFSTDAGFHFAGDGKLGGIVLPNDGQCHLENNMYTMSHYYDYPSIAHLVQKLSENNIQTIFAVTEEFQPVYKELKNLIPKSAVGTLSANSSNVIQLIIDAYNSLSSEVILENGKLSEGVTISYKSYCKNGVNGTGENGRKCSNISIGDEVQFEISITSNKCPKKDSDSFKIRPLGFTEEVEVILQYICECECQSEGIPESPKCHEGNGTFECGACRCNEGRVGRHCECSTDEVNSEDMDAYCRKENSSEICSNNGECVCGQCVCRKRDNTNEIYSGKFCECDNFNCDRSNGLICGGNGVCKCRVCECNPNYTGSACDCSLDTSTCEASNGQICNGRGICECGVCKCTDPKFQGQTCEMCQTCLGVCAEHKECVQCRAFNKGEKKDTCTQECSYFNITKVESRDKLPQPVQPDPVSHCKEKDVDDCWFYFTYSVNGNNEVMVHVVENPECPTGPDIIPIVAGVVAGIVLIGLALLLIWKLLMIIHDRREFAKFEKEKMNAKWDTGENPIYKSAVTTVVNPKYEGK
UniProt P21333: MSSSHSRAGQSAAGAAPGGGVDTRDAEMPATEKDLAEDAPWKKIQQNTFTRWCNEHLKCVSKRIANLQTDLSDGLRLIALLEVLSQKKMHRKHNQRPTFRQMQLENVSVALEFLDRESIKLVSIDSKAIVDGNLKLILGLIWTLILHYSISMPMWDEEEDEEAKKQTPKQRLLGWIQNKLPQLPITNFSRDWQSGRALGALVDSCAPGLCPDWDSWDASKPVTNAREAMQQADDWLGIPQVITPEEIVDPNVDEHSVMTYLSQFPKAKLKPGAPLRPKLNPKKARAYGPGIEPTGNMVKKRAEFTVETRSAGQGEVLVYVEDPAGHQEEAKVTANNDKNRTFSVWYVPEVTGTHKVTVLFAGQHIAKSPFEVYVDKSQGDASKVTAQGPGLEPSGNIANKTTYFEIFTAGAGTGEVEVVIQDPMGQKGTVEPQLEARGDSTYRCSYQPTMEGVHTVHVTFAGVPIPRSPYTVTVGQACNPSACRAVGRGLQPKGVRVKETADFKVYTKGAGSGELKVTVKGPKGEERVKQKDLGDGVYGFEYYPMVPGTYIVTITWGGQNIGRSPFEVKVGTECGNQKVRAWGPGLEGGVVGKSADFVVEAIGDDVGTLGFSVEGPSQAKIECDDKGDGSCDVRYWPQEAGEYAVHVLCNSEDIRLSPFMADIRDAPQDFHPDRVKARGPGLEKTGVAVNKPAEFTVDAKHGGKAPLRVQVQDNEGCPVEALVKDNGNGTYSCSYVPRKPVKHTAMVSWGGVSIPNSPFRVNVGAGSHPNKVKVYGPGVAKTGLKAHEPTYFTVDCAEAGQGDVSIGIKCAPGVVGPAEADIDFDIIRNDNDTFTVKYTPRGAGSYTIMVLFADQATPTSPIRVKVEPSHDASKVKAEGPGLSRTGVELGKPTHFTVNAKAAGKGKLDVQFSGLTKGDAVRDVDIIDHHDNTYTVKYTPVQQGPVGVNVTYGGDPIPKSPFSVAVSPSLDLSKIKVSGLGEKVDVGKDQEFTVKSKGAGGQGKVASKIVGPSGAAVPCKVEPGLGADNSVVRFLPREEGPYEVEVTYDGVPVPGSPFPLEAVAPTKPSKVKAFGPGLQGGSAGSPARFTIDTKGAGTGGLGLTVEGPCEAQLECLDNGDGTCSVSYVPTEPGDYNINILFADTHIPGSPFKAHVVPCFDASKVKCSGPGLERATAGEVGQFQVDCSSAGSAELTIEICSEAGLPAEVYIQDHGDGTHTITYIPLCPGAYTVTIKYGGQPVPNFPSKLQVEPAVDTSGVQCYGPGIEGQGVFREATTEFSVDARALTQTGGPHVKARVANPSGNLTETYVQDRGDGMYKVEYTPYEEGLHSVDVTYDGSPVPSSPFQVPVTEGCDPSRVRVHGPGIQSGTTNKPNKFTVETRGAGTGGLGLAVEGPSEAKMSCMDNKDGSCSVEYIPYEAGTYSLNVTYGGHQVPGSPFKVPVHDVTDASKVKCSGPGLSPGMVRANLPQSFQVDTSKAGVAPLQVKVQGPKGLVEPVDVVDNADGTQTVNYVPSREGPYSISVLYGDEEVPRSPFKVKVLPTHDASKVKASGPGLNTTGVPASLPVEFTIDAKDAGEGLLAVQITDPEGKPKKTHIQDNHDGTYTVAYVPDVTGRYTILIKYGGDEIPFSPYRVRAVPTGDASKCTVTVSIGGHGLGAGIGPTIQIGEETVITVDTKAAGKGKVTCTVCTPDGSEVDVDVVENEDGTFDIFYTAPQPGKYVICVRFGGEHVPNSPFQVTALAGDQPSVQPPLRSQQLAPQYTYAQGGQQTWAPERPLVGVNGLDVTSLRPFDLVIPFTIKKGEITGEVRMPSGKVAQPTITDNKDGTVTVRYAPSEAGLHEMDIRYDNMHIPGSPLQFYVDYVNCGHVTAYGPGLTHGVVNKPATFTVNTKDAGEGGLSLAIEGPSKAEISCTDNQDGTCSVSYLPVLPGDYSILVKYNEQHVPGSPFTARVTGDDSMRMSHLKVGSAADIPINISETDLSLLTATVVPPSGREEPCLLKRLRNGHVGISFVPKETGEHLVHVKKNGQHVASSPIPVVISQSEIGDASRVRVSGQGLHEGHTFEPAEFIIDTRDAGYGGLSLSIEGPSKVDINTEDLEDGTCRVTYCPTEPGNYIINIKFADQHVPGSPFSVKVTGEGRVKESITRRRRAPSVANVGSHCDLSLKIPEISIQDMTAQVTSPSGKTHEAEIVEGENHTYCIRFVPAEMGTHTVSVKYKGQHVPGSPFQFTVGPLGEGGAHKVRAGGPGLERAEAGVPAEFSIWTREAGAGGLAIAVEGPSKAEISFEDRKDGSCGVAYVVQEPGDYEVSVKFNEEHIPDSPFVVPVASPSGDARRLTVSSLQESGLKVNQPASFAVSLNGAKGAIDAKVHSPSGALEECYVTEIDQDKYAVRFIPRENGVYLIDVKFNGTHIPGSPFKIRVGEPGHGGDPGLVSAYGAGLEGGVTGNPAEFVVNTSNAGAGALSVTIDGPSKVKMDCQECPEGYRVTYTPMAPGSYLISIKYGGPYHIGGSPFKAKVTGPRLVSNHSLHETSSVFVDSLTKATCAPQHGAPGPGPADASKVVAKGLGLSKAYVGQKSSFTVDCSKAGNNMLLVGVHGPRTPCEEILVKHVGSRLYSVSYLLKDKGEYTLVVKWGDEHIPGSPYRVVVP

What was measured:
[1] = molecular target: androgen receptor (human (endogenous in primary prostate CAFs)) (UniProt P10275); assay: co-IP; lysates of quiescent AR-positive primary prostate CAFs (pooled), unchallenged or challenged 10 min with 10 nM R1881, with or without 10 nM Rh-2025u or 10 μM enzalutamide; immune-precipitation with mouse monoclonal anti-AR (441), Western blot; control IgG
[2] = molecular target: androgen receptor (human (endogenous in primary prostate CAFs)) (UniProt P10275); assay: condition: only with 10 μM enzalutamide (cells challenged with 10 nM R1881); co-IP; quiescent CAFs challenged 10 min with 10 nM R1881 in the presence of 10 μM enzalutamide; lysates immune-precipitated with anti-AR, blotted for FlnA

| binding [1] | binding [2] | Substance |
| --- | --- | --- |
| binds |  | β1 integrin (from UniProt P05556 21-798) (receptor) |
| binds | no binding | filamin A (from UniProt P21333 1-2647) |
